Data source: PubChem BioAssay AID652243 (Drosophila RNAi Screening Center, 2013)
In all, the deposit lists about 24,000 reagents; below is a random part of those that have a named target and a result. Of all reagents, 246 (1%) are marked active. 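Plates not normalised; calls are printed but the firefly/Renilla ratio behind them is not deposited; fold cut for lowering reported inconsistently.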 Raw values are not corrected between plates. Not given: the amount of reagent.

Aim: 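Fly regulators of androgen-dependent reporter output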 (primary screen)
System: Drosophila S2R+ cells
Reagent: long dsRNA against Drosophila genes
Time to read-out: 72 h (48 h, then 24 h hormone)
Treatment: synthetic androgen R1881 at 10 nM for 24 h
Measurement: 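Firefly light from an androgen-responsive reporter and Renilla control light per well, raw and unnormalised, for each of two replicates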
Scale: firefly reporter light: higher = more light from androgen-responsive reporter; Renilla control light: higher = more constitutive control signal (cell number, transfection)
Active means: 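Hit when the log firefly-to-Renilla ratio dropped or increased by a fixed fold versus the mean of GFP or LacZ controls across duplicate plates; lowering cut given as 1.5 and as 3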
Calls: active = hit: reporter lowered or raised; inactive = no hit

CG13455 (GeneID 39667) [DRSC10002] → firefly reporter light, replicate 1 = 1.05e5; firefly reporter light, replicate 2 = 97897; Renilla control light, replicate 1 = 9.46e5; Renilla control light, replicate 2 = 1.20e6; Call = inactive
Srp72 (GeneID 42439) [DRSC15800] → firefly reporter light, replicate 1 = 70893; firefly reporter light, replicate 2 = 54857; Renilla control light, replicate 1 = 8.37e5; Renilla control light, replicate 2 = 7.22e5; Call = inactive
Srp72 (GeneID 42439) [DRSC28338] → firefly reporter light, replicate 1 = 2.46e5; firefly reporter light, replicate 2 = 5.93e5; Renilla control light, replicate 1 = 6.55e5; Renilla control light, replicate 2 = 1.36e6; Call = inactive
Atg8b (GeneID 42132) [DRSC14501] → firefly reporter light, replicate 1 = 1.95e5; firefly reporter light, replicate 2 = 2.01e5; Renilla control light, replicate 1 = 1.40e6; Renilla control light, replicate 2 = 1.26e6; Call = inactive
Atg8b (GeneID 42132) [DRSC24428] → firefly reporter light, replicate 1 = 8.17e5; firefly reporter light, replicate 2 = 8.18e5; Renilla control light, replicate 1 = 1.32e6; Renilla control light, replicate 2 = 1.41e6; Call = inactive
park (GeneID 40336) [DRSC11618] → firefly reporter light, replicate 1 = 45874; firefly reporter light, replicate 2 = 30384; Renilla control light, replicate 1 = 3.45e5; Renilla control light, replicate 2 = 3.49e5; Call = inactive
fok (GeneID 44380) [DRSC02103] → firefly reporter light, replicate 1 = 1.64e5; firefly reporter light, replicate 2 = 1.60e5; Renilla control light, replicate 1 = 1.20e6; Renilla control light, replicate 2 = 1.23e6; Call = inactive
fok (GeneID 44380) [DRSC23907] → firefly reporter light, replicate 1 = 6.38e5; firefly reporter light, replicate 2 = 3.65e5; Renilla control light, replicate 1 = 6.36e5; Renilla control light, replicate 2 = 5.88e5; Call = inactive
CG31021 (GeneID 43638) [DRSC22319] → firefly reporter light, replicate 1 = 1.12e6; firefly reporter light, replicate 2 = 1.20e6; Renilla control light, replicate 1 = 1.55e6; Renilla control light, replicate 2 = 1.50e6; Call = inactive
Naa30B (GeneID 317976) [DRSC08245] → firefly reporter light, replicate 1 = 75088; firefly reporter light, replicate 2 = 1.12e5; Renilla control light, replicate 1 = 1.40e6; Renilla control light, replicate 2 = 1.49e6; Call = inactive
Axn (GeneID 43565) [DRSC14120] → firefly reporter light, replicate 1 = 3.60e5; firefly reporter light, replicate 2 = 3.77e5; Renilla control light, replicate 1 = 1.83e6; Renilla control light, replicate 2 = 2.35e6; Call = inactive
Axn (GeneID 43565) [DRSC29423] → firefly reporter light, replicate 1 = 9.46e5; firefly reporter light, replicate 2 = 6.38e5; Renilla control light, replicate 1 = 6.88e5; Renilla control light, replicate 2 = 6.88e5; Call = inactive
CG43428 (GeneID 12798467) [DRSC06205] → firefly reporter light, replicate 1 = 66720; firefly reporter light, replicate 2 = 52496; Renilla control light, replicate 1 = 7.80e5; Renilla control light, replicate 2 = 7.80e5; Call = inactive
CG43428 (GeneID 12798467) [DRSC25601] → firefly reporter light, replicate 1 = 4.57e5; firefly reporter light, replicate 2 = 5.24e5; Renilla control light, replicate 1 = 7.90e5; Renilla control light, replicate 2 = 6.88e5; Call = inactive
